Measurements as given in the supplement of paper PMC8728848.
Some of the results follow.

How the values were obtained:
Assay in all cases: glycan array binding signal (z-score within array); higher = stronger binding
Settings in all cases: glycan notation: IUPAC condensed, linker removed
[1] = target: Neu5Ac(a2-3)Gal(b1-4)GlcNAc(b1-3)[Neu5Ac(a2-3)Gal(b1-4)GlcNAc(b1-6)]GalNAc
In short: (§1)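 The binding signal is a Z-score computed within each array. Data were drawn from 3228 arrays in the Consortium for Functional Glycomics database, restricted to those with a known protein sequence. Scores were averaged over arrays of the same protein sequence at different concentrations or buffers, and over linkers, and negative values can be taken as non-binding.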

[2] = target: Neu5Ac(a2-3)Gal(b1-4)GlcNAc(b1-6)GalNAc
In short: as §1

[3] = target: Neu5Ac(a2-3)Gal(b1-4)GlcNAc(b1-6)[Gal(b1-3)]GalNAc
In short: as §1

[4] = target: Neu5Ac(a2-3)Gal(b1-4)GlcNAc(b1-6)[Neu5Ac(a2-3)Gal(b1-3)]GalNAc
In short: as §1

[5] = target: Neu5Ac(a2-3)Gal(b1-4)GlcNAc6S
In short: as §1

[6] = target: Neu5Ac(a2-3)Gal(b1-4)[Fuc(a1-3)]GlcNAc
In short: as §1

[7] = target: Neu5Ac(a2-3)Gal(b1-4)[Fuc(a1-3)]GlcNAc(b1-2)Man
In short: as §1

[8] = target: Neu5Ac(a2-3)Gal(b1-4)[Fuc(a1-3)]GlcNAc(b1-3)Gal
In short: as §1

[9] = target: Neu5Ac(a2-3)Gal(b1-4)[Fuc(a1-3)]GlcNAc(b1-3)Gal(b1-4)GlcNAc
In short: as §1

[10] = target: Neu5Ac(a2-3)Gal(b1-4)[Fuc(a1-3)]GlcNAc(b1-3)Gal(b1-4)[Fuc(a1-3)]GlcNAc(b1-3)Gal(b1-4)[Fuc(a1-3)]GlcNAc
In short: as §1

[11] = target: Neu5Ac(a2-3)Gal(b1-4)[Fuc(a1-3)]GlcNAc(b1-3)GalNAc
In short: as §1

[12] = target: Neu5Ac(a2-3)Gal(b1-4)[Fuc(a1-3)]GlcNAc(b1-6)[Gal(b1-3)]GalNAc
In short: as §1

[13] = target: Neu5Ac(a2-3)Gal(b1-4)[Fuc(a1-3)]GlcNAc(b1-6)[Neu5Ac(a2-3)Gal(b1-3)]GalNAc
In short: as §1

[14] = target: Neu5Ac(a2-3)Gal(b1-4)[Fuc(a1-3)]GlcNAc6S
In short: as §1

[15] = target: Neu5Ac(a2-3)Gal6S(b1-4)GlcNAc
In short: as §1

[16] = target: Neu5Ac(a2-3)Gal6S(b1-4)[Fuc(a1-3)]GlcNAc
In short: as §1

Neu5Ac(a2-3)GalNAc = target: Neu5Ac(a2-3)GalNAc
In short: as §1

[17] = target: Neu5Ac(a2-3)GalNAc(b1-4)GlcNAc
In short: as §1

[18] = target: Neu5Ac(a2-3)[GalNAc(b1-4)]Gal(b1-4)Glc
In short: as §1

[19] = target: Neu5Ac(a2-3)[GalNAc(b1-4)]Gal(b1-4)GlcNAc
In short: as §1

[20] = target: Neu5Ac(a2-3)[GalNAc(b1-4)]Gal(b1-4)GlcNAc(b1-3)GalNAc
In short: as §1

[21] = target: Neu5Ac(a2-3)[Neu5Ac(a2-6)]GalNAc
In short: as §1

Neu5Ac(a2-6)Gal = target: Neu5Ac(a2-6)Gal
In short: as §1

[22] = target: Neu5Ac(a2-6)Gal(b1-3)GlcNAc(b1-3)[Gal(b1-4)GlcNAc(b1-6)]Gal(b1-4)Glc
In short: as §1

Neu5Ac(a2-6)Gal(b1-4)Glc = target: Neu5Ac(a2-6)Gal(b1-4)Glc
In short: as §1

[23] = target: Neu5Ac(a2-6)Gal(b1-4)GlcNAc
In short: as §1

[24] = target: Neu5Ac(a2-6)Gal(b1-4)GlcNAc(b1-2)Man
In short: as §1

[25] = target: Neu5Ac(a2-6)Gal(b1-4)GlcNAc(b1-2)Man(a1-3)Man(b1-4)GlcNAc(b1-4)GlcNAc
In short: as §1

[26] = target: Neu5Ac(a2-6)Gal(b1-4)GlcNAc(b1-2)Man(a1-3)[Gal(b1-4)GlcNAc(b1-2)Man(a1-6)]Man(b1-4)GlcNAc(b1-4)GlcNAc
In short: as §1

[27] = target: Neu5Ac(a2-6)Gal(b1-4)GlcNAc(b1-2)Man(a1-3)[GlcNAc(b1-2)Man(a1-6)]Man(b1-4)GlcNAc(b1-4)GlcNAc
In short: as §1

[28] = target: Neu5Ac(a2-6)Gal(b1-4)GlcNAc(b1-2)Man(a1-3)[GlcNAc(b1-4)][Neu5Ac(a2-6)Gal(b1-4)GlcNAc(b1-2)Man(a1-6)]Man(b1-4)GlcNAc(b1-4)GlcNAc
In short: as §1

[29] = target: Neu5Ac(a2-6)Gal(b1-4)GlcNAc(b1-2)Man(a1-3)[Man(a1-6)]Man(b1-4)GlcNAc(b1-4)GlcNAc
In short: as §1

[30] = target: Neu5Ac(a2-6)Gal(b1-4)GlcNAc(b1-2)Man(a1-3)[Neu5Ac(a2-3)Gal(b1-4)GlcNAc(b1-2)Man(a1-6)]Man(b1-4)GlcNAc(b1-4)GlcNAc
In short: as §1

[31] = target: Neu5Ac(a2-6)Gal(b1-4)GlcNAc(b1-2)Man(a1-3)[Neu5Ac(a2-6)Gal(b1-4)GlcNAc(b1-2)Man(a1-6)]Man(b1-4)GlcNAc(b1-4)GlcNAc
In short: as §1

[32] = target: Neu5Ac(a2-6)Gal(b1-4)GlcNAc(b1-2)Man(a1-3)[Neu5Ac(a2-6)Gal(b1-4)GlcNAc(b1-2)Man(a1-6)]Man(b1-4)GlcNAc(b1-4)[Fuc(a1-6)]GlcNAc
In short: as §1

[33] = target: Neu5Ac(a2-6)Gal(b1-4)GlcNAc(b1-2)Man(a1-6)Man(b1-4)GlcNAc(b1-4)GlcNAc
In short: as §1

[34] = target: Neu5Ac(a2-6)Gal(b1-4)GlcNAc(b1-2)Man(a1-6)[Gal(b1-4)GlcNAc(b1-2)Man(a1-3)]Man(b1-4)GlcNAc(b1-4)GlcNAc
In short: as §1

[35] = target: Neu5Ac(a2-6)Gal(b1-4)GlcNAc(b1-2)Man(a1-6)[GlcNAc(b1-2)Man(a1-3)]Man(b1-4)GlcNAc(b1-4)GlcNAc
In short: as §1

[36] = target: Neu5Ac(a2-6)Gal(b1-4)GlcNAc(b1-2)Man(a1-6)[Man(a1-3)]Man(b1-4)GlcNAc(b1-4)GlcNAc
In short: as §1

[37] = target: Neu5Ac(a2-6)Gal(b1-4)GlcNAc(b1-2)[Neu5Ac(a2-6)Gal(b1-4)GlcNAc(b1-4)]Man(a1-3)[GlcNAc(b1-4)][Neu5Ac(a2-6)Gal(b1-4)GlcNAc(b1-2)[Neu5Ac(a2-6)Gal(b1-4)GlcNAc(b1-6)]Man(a1-6)]Man(b1-4)GlcNAc(b1-4)GlcNAc
In short: as §1

[38] = target: Neu5Ac(a2-6)Gal(b1-4)GlcNAc(b1-2)[Neu5Ac(a2-6)Gal(b1-4)GlcNAc(b1-4)]Man(a1-3)[GlcNAc(b1-4)][Neu5Ac(a2-6)Gal(b1-4)GlcNAc(b1-4)Man(a1-6)]Man(b1-4)GlcNAc(b1-4)GlcNAc
In short: as §1

[39] = target: Neu5Ac(a2-6)Gal(b1-4)GlcNAc(b1-2)[Neu5Ac(a2-6)Gal(b1-4)GlcNAc(b1-6)]Man(a1-6)[Neu5Ac(a2-6)Gal(b1-4)GlcNAc(b1-2)Man(a1-3)][GlcNAc(b1-4)]Man(b1-4)GlcNAc(b1-4)GlcNAc
In short: as §1

[40] = target: Neu5Ac(a2-6)Gal(b1-4)GlcNAc(b1-3)Gal(b1-3)GlcNAc
In short: as §1

[41] = target: Neu5Ac(a2-6)Gal(b1-4)GlcNAc(b1-3)Gal(b1-4)GlcNAc
In short: as §1

[42] = target: Neu5Ac(a2-6)Gal(b1-4)GlcNAc(b1-3)Gal(b1-4)GlcNAc(b1-2)Man(a1-3)[Neu5Ac(a2-6)Gal(b1-4)GlcNAc(b1-3)Gal(b1-4)GlcNAc(b1-2)Man(a1-6)]GalNAc
In short: as §1

B1: MUB70 (Lactobacillus reuteri) (protein)
chain: CVHVQYIDGETDQMLRQDDLDGYTDETIPYSTAEGIKKFEGDGYELFKDNFPAGEKFDNDDTNDQFYTVIF
glycan array binding signal (z-score) [1]: 0.095
glycan array binding signal (z-score) [2]: 0.749
glycan array binding signal (z-score) [3]: 0.538
glycan array binding signal (z-score) [4]: -0.114
glycan array binding signal (z-score) [5]: -0.857
glycan array binding signal (z-score) [6]: -0.116
glycan array binding signal (z-score) [7]: -0.157
glycan array binding signal (z-score) [8]: -0.558
glycan array binding signal (z-score) [9]: 1.08
glycan array binding signal (z-score) [10]: -0.105
glycan array binding signal (z-score) [11]: 1.64
glycan array binding signal (z-score) [12]: -0.65
glycan array binding signal (z-score) [13]: -0.675
glycan array binding signal (z-score) [14]: -0.203
glycan array binding signal (z-score) [15]: -0.909
glycan array binding signal (z-score) [16]: 1.93
glycan array binding signal (z-score) (Neu5Ac(a2-3)GalNAc): -0.802
glycan array binding signal (z-score) [17]: 0.775
glycan array binding signal (z-score) [18]: -0.6
glycan array binding signal (z-score) [19]: -0.992
glycan array binding signal (z-score) [20]: 0.003
glycan array binding signal (z-score) [21]: -0.165
glycan array binding signal (z-score) (Neu5Ac(a2-6)Gal): -0.22
glycan array binding signal (z-score) [22]: -0.242
glycan array binding signal (z-score) (Neu5Ac(a2-6)Gal(b1-4)Glc): -0.698
glycan array binding signal (z-score) [23]: -0.374
glycan array binding signal (z-score) [24]: -0.612
glycan array binding signal (z-score) [25]: -0.651
glycan array binding signal (z-score) [26]: 0.099
glycan array binding signal (z-score) [27]: 0.163
glycan array binding signal (z-score) [28]: 0.26
glycan array binding signal (z-score) [29]: -0.534
glycan array binding signal (z-score) [30]: 1.35
glycan array binding signal (z-score) [31]: 1.81
glycan array binding signal (z-score) [32]: 1.34
glycan array binding signal (z-score) [33]: -0.269
glycan array binding signal (z-score) [34]: -0.388
glycan array binding signal (z-score) [35]: -0.159
glycan array binding signal (z-score) [36]: -0.097
glycan array binding signal (z-score) [37]: 0.322
glycan array binding signal (z-score) [38]: 0.176
glycan array binding signal (z-score) [39]: 0.051
glycan array binding signal (z-score) [40]: 0.855
glycan array binding signal (z-score) [41]: -1.33
glycan array binding signal (z-score) [42]: 0.348
